Experimental data from PMC7845594, “Novel Immune Modulators Enhance Caenorhabditis elegans Resistance to Multiple Pathogens” (mSphere, 2021).
This continues a long series; more values of the same kind are listed elsewhere.

System: C. elegans transcriptome
Experiment: Transcriptome profiling (Affymetrix microarrays), differentially expressed genes
Assay type: in vivo, Caenorhabditis elegans
Conditions: downregulated genes
Description: To gain additional insight into the effect of LK molecules on C. elegans, young-adult, wild-type worms were treated with each drug at 100 µM for 8 h in the absence of pathogen. RNA was collected, and transcriptome profiling was performed.
Data were determined using Affymetrix microarrays, as described in Materials and Methods. Download Table S3, XLSX file, 0.07 MB.
Transcriptome profiling was performed on ∼6,000 wild-type, young adult worms incubated with either LK molecules or DMSO for 8 h. RNA isolation was performed using TRIzol extraction, followed by cleanup using RNeasy columns according to the manufacturer’s protocol. Each condition was analyzed in triplicate. Microarray data have been deposited in the GEO database, accession number GSE137516. […] Clustering and generation of the heat map was performed using Cluster 3.0 ([98]) and Treeview ([99]), respectively. Fold change of genes were normalized to average fold change of that gene over all clustered conditions. Genes and conditions were clustered using Euclidean distance and average linkages. […] Microarray data for non-LK molecules were collected from GEO omnibus. WormEXP was used as a secondary method for confirming statistical significance of potential pathways stimulated by each of the LK molecules ([100]). Gene ontologies were generated using DAVID ([101], [102]).

Compound: CNC(=O)Oc1c(Br)cc2sc(=O)oc2c1Br [LK34]
- Fold Change (Affy_ID 171811_s_at, listed under genes K01D12.7 (LK34, LK38), C57047 (LK35), K01D12.15 (LK38)): 0.2752
- Fold Change (Affy_ID 176276_s_at, listed under gene Y69A2AR.25 (LK34) or Y69A2AR.12 (LK38)): 0.3954
- Fold Change (Affy_ID 192118_s_at, listed under gene F10C1.7 (LK34, LK35) or F10C1.8 (LK38)): 0.2969
- Fold Change (Affy_ID 194255_x_at, listed under gene F22A3.6 (LK34, LK35) or C68743 (LK38)): 0.4293
- Fold Change (Gene AC3.7, Affy_ID 190879_at): 0.3787
- Fold Change (Gene B0035.13, Affy_ID 188123_at): 0.2094
- Fold Change (Gene B0218.1, Affy_ID 188358_at): 0.1728
- Fold Change (Gene B0379.1, Affy_ID 179086_s_at): 0.4182
- Fold Change (Gene B0507.8, Affy_ID 180569_at): 0.1942
- Fold Change (Gene C04G2.4, Affy_ID 172853_x_at): 0.2092
- Fold Change (Gene C05C10.4, Affy_ID 189921_at): 0.2024
- Fold Change (Gene C08E3.1, Affy_ID 172309_x_at): 0.114
- Fold Change (Gene C08E3.13, Affy_ID 172565_x_at): 0.1205
- Fold Change (Gene C08F11.13, Affy_ID 175229_at): 0.2724
- Fold Change (Gene C14C6.2, Affy_ID 183566_at): 0.366
- Fold Change (Gene C17B7.2, Affy_ID 181325_s_at): 0.2804
- Fold Change (Gene C24D10.7, Affy_ID 172569_x_at): 0.2356
- Fold Change (Gene C24D10.8, Affy_ID 172527_x_at): 0.238
- Fold Change (Gene C24G6.6, Affy_ID 180541_s_at): 0.3761
- Fold Change (Gene C27H5.4, Affy_ID 181334_s_at): 0.3238
- Fold Change (Gene C28C12.5, Affy_ID 185774_s_at): 0.4973
- Fold Change (Gene C29F4.2, Affy_ID 190884_at): 0.2089
- Fold Change (Gene C32E8.7, Affy_ID 188220_at): 0.4493
- Fold Change (Gene C33F10.9, Affy_ID 172834_x_at): 0.2463
- Fold Change (Gene C34F11.4, Affy_ID 172885_x_at): 0.257
- Fold Change (Gene C34F11.6, Affy_ID 172896_x_at): 0.2137
- Fold Change (Gene C35A5.6, Affy_ID 179396_at): 0.15
- Fold Change (Gene C35D10.11, Affy_ID 172630_x_at): 0.1378
- Fold Change (Gene C46H11.4, Affy_ID 176895_s_at): 0.4829
- Fold Change (Gene C48B4.10, Affy_ID 187264_at): 0.4681
- Fold Change (Gene CTEL54X.1, Affy_ID 185910_at): 0.3393
- Fold Change (Gene D1086.2, Affy_ID 177478_at): 0.2731
- Fold Change (Gene D2024.7, Affy_ID 187178_s_at): 0.4525
- Fold Change (Gene D2089.3, Affy_ID 178891_at): 0.432
- Fold Change (Gene F07A11.5, Affy_ID 188623_at): 0.4695
- Fold Change (Gene F08G2.1, Affy_ID 192280_s_at): 0.2639
- Fold Change (Gene F08G2.2, Affy_ID 172835_x_at): 0.4147
- Fold Change (Gene F08G2.3, Affy_ID 172899_x_at): 0.4223
- Fold Change (Gene F08H9.8, Affy_ID 189993_at): 0.2938
- Fold Change (Gene F09C12.7, Affy_ID 172687_x_at): 0.2916
- Fold Change (Gene F11E6.3, Affy_ID 179439_s_at): 0.383
- Fold Change (Gene F11E6.5, Affy_ID 189318_at): 0.3839
- Fold Change (Gene F13B6.3, Affy_ID 180766_at): 0.1138
- Fold Change (Gene F14F7.1, Affy_ID 188356_at): 0.3174
- Fold Change (Gene F16F9.4, Affy_ID 188201_at): 0.3145
- Fold Change (Gene F17C11.4, Affy_ID 180312_at): 0.308
- Fold Change (Gene F18G5.6, Affy_ID 182444_at): 0.4672
- Fold Change (Gene F20D6.5, Affy_ID 182519_at): 0.1522
- Fold Change (Gene F26G1.7, Affy_ID 172882_x_at): 0.2257
- Fold Change (Gene F27C8.4, Affy_ID 179424_at): 0.3297
- Fold Change (Gene F28H1.2, Affy_ID 188459_s_at): 0.3476
- Fold Change (Gene F28H7.3, Affy_ID 187996_s_at): 0.208
- Fold Change (Gene F32B6.6, Affy_ID 172854_x_at): 0.2349
- Fold Change (Gene F32G8.6, Affy_ID 190591_at): 0.2535
- Fold Change (Gene F36D3.9, Affy_ID 189469_at): 0.02885
- Fold Change (Gene F37A8.4, Affy_ID 188068_at): 0.07278
- Fold Change (Gene F38A3.1, Affy_ID 188281_s_at): 0.1533
- Fold Change (Gene F38E11.2, Affy_ID 192323_at): 0.1286
- Fold Change (Gene F40B5.1, Affy_ID 187391_at): 0.2878
- Fold Change (Gene F41F3.4, Affy_ID 189545_s_at): 0.3333
- Fold Change (Gene F43C11.7, Affy_ID 186263_at): 0.4218
- Fold Change (Gene F44C8.8, Affy_ID 189999_at): 0.3136
- Fold Change (Gene F44D12.5, Affy_ID 172333_x_at): 0.175
- Fold Change (Gene F44D12.7, Affy_ID 172327_x_at): 0.1686
- Fold Change (Gene F45D11.15, Affy_ID 186801_s_at): 0.1089
- Fold Change (Gene F45E4.8, Affy_ID 183438_s_at): 0.3976
- Fold Change (Gene F47B10.2, Affy_ID 191301_s_at): 0.2777
- Fold Change (Gene F48G7.10, Affy_ID 184636_at): 0.2176
- Fold Change (Gene F49E12.10, Affy_ID 190009_at): 0.06655
- Fold Change (Gene F52H3.7, Affy_ID 194236_x_at): 0.4356
- Fold Change (Gene F53A9.6, Affy_ID 172363_x_at): 0.3981
- Fold Change (Gene F53A9.8, Affy_ID 180612_s_at): 0.3337
- Fold Change (Gene F53F4.13, Affy_ID 182491_at): 0.3071
- Fold Change (Gene F54F11.2, Affy_ID 191753_at): 0.4195
- Fold Change (Gene F55F3.2, Affy_ID 189534_at): 0.3116
- Fold Change (Gene F55G1.3, Affy_ID 172702_x_at): 0.4079
- Fold Change (Gene F58A4.7, Affy_ID 171841_x_at): 0.3786
- Fold Change (Gene F58A6.8, Affy_ID 172889_x_at): 0.2151
- Fold Change (Gene F58A6.9, Affy_ID 172743_x_at): 0.2491
- Fold Change (Gene F58E10.7, Affy_ID 184175_at): 0.2647
- Fold Change (Gene F58G1.4, Affy_ID 177978_at): 0.3408
- Fold Change (Gene H02I12.6, Affy_ID 172891_x_at): 0.4351
- Fold Change (Gene H12C20.3, Affy_ID 192782_at): 0.3312
- Fold Change (Gene K02D7.1, Affy_ID 189003_s_at): 0.4499
- Fold Change (Gene K03H6.2, Affy_ID 183309_at): 0.2526
- Fold Change (Gene K05F1.2, Affy_ID 172815_x_at): 0.2831
- Fold Change (Gene K05F1.7, Affy_ID 172904_x_at): 0.1817
- Fold Change (Gene K07E8.3, Affy_ID 180256_at): 0.051
- Fold Change (Gene K07F5.2, Affy_ID 172852_x_at): 0.2244
- Fold Change (Gene K07F5.3, Affy_ID 172907_x_at): 0.2527
- Fold Change (Gene K07F5.5, Affy_ID 172245_x_at): 0.3514
- Fold Change (Gene K08F4.8, Affy_ID 172934_x_at): 0.2062
- Fold Change (Gene K11E4.2, Affy_ID 190223_at): 0.4122
- Fold Change (Gene M01D7.5, Affy_ID 173242_s_at): 0.2679
- Fold Change (Gene T03D8.2, Affy_ID 190280_at): 0.4804
- Fold Change (Gene T07C4.4, Affy_ID 178149_s_at): 0.4857
- Fold Change (Gene T07G12.5, Affy_ID 188496_s_at): 0.08873
- Fold Change (Gene T08B1.6, Affy_ID 192296_at): 0.2707
- Fold Change (Gene T08B2.12, Affy_ID 184685_s_at): 0.1097
- Fold Change (Gene T09A12.2, Affy_ID 190674_at): 0.4382
- Fold Change (Gene T09F5.9, Affy_ID 188947_at): 0.3188
- Fold Change (Gene T13F2.10, Affy_ID 172906_x_at): 0.2521
- Fold Change (Gene T14B4.4, Affy_ID 190598_at): 0.3688
- Fold Change (Gene T15B7.9, Affy_ID 182858_at): 0.306
- Fold Change (Gene T20B3.2, Affy_ID 188278_s_at): 0.4132
- Fold Change (Gene T20D4.11, Affy_ID 184438_at): 0.06663
- Fold Change (Gene T21D12.9, Affy_ID 186872_s_at): 0.4251
- Fold Change (Gene T22H2.6, Affy_ID 180962_s_at): 0.4341
- Fold Change (Gene T23B12.8, Affy_ID 184855_at): 0.1217
- Fold Change (Gene T23F4.1, Affy_ID 180223_s_at): 0.03953
- Fold Change (Gene T23F4.3, Affy_ID 179815_at): 0.05033
- Fold Change (Gene T27A10.7, Affy_ID 186153_s_at): 0.3368
- Fold Change (Gene T27E4.7, Affy_ID 173757_s_at): 0.2826
- Fold Change (Gene T28H11.6, Affy_ID 172704_x_at): 0.3753
- Fold Change (Gene W03C9.3, Affy_ID 189720_s_at): 0.4449
- Fold Change (Gene W04B5.2, Affy_ID 180561_at): 0.4474
- Fold Change (Gene W07B8.5, Affy_ID 191887_s_at): 0.3128
- Fold Change (Gene W07E6.1, Affy_ID 189661_at): 0.4658
- Fold Change (Gene Y40D12A.2, Affy_ID 191017_at): 0.4317
- Fold Change (Gene Y44A6C.1, Affy_ID 182843_at): 0.4517
- Fold Change (Gene Y45F10A.5, Affy_ID 184558_at): 0.1996
- Fold Change (Gene Y46G5A.21, Affy_ID 186464_s_at): 0.4571
- Fold Change (Gene Y48A6B.7, Affy_ID 193926_at): 0.3048
- Fold Change (Gene Y51A2D.13, Affy_ID 192992_at): 0.3832
- Fold Change (Gene Y51H4A.24, Affy_ID 172511_x_at): 0.4578
- Fold Change (Gene Y51H4A.7, Affy_ID 180145_s_at): 0.3224
- Fold Change (Gene Y54G2A.7, Affy_ID 174102_at): 0.3028
- Fold Change (Gene Y59H11AM.1, Affy_ID 172113_x_at): 0.2747
- Fold Change (Gene Y71G12B.4, Affy_ID 176544_at): 0.3554
- Fold Change (Gene Y71H2AL.1, Affy_ID 172177_x_at): 0.4226
- Fold Change (Gene Y71H2AM.13, Affy_ID 176285_s_at): 0.4452
- Fold Change (Gene Y105C5A.13, Affy_ID 172627_x_at): 0.07707
- Fold Change (Gene Y105C5A.24, Affy_ID 187121_at): 0.4643
- Fold Change (Gene Y119D3B.13, Affy_ID 175112_s_at): 0.3133
- Fold Change (Gene ZC416.6, Affy_ID 188470_s_at): 0.3851
- Fold Change (Gene ZK112.1, Affy_ID 175995_at): 0.2896
- Fold Change (Gene ZK131.4, Affy_ID 190307_s_at): 0.3291
- Fold Change (Gene ZK1248.4, Affy_ID 172734_x_at): 0.2861
- Fold Change (Gene ZK1248.6, Affy_ID 172887_x_at): 0.1841
- Fold Change (Gene ZK1251.6, Affy_ID 172938_x_at): 0.2528
